## Results of single-concentration screens

The values are deposited in ChEMBL (CHEMBL3988442, “University of Dundee, Small-Polar-MMV Screening Library” (2021)).

Values are the deposited “Percent Effect”, in %.
The record does not define 0% and 100%; most values in the screen are far below 50% and negative numbers occur (in some assays of this library far below -100).
This is an unselected part of the compounds tested.
Two or more numbers in one place are separate tests of the same structure; such repeats can differ widely.

Mtb cholesterol medium: 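Growth of Mycobacterium tuberculosis over 4 days (cholesterol / DPPC medium with tyloxapol); the read-out is not stated. Compounds at 50 µM. Direction is inferred from retests: higher values go with more growth inhibition. About 69,000 compounds were tested under these conditions; 0.54% (about 370) showed 50% or more at least once.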
Mtb glucose medium: 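Growth of Mycobacterium tuberculosis over 3 days (7H9 medium with glucose and tyloxapol); the read-out is not stated. Compounds at 50 µM. The record gives no direction; compounds that gave an IC50 in retests scored well above the rest, so higher reads as more growth inhibition. About 69,000 compounds were tested under these conditions; 1.1% (about 760) showed 50% or more at least once.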

structure | Mtb cholesterol medium | Mtb glucose medium
COc1ccc(CCN2CCc3c(nc(C4CC4)n3C)C2)cc1 | -28.86 | -29.01
CCCC(=O)NC1CCCN(C(=O)c2ccc(C)nc2)C1 (centres unmarked) | -34.52 | -3.967 and -29.74
COc1cccc(C(C)N2CCN(S(=O)(=O)c3ccccc3)CC2)c1 (centres unmarked) | 10.53 | 9.389
Cc1n[nH]c(C2CN(C(=O)c3cc4c(s3)CCC4)CCO2)n1 (centres unmarked) | -0.4182 | 7.844
COc1ccc(CNC(Cc2ccsc2)c2ncccc2C)cc1OC (centres unmarked) | 28.08 and 15 | 21.16
Cc1ccc(C2(CN(C)Cc3snnc3C)CCNCC2)nc1 | -11.2 | -9.835
CCS(=O)(=O)NCCNc1cc(-n2cccc2)ncn1 | 18.16 | 8.41 and 18.33
Nc1nccnc1C1CN(Cc2ccc(OCC(=O)O)cc2)CCO1 (centres unmarked) | -15.51 | -20.33
CO[C@H]1CN(S(=O)(=O)c2ccccc2F)C[C@@]12CCCO2 | -7.233 | -6.367
CCOCCN1Cc2cnn(C)c2C(COCC)C1.O=C(O)C(F)(F)F.O=C(O)C(F)(F)F (centres unmarked) | -6.583 | 0.2129
COCC(C)(O)CNC(=O)Nc1cccc(OC)c1OC (centres unmarked) | -11.88 | 6.696 and -2.917
CN(C)CC(O)Cn1cc(NCc2ccc(Br)cc2)cn1 (centres unmarked) | -5.651 | 7.474
Cn1nccc1-c1ncc2c(c1C(=O)O)CCN(Cc1cccnc1)C2.O=C(O)C(F)(F)F.O=C(O)C(F)(F)F | 14.38 | -17.19 and 30.04
CC(C)c1nnc(CCC(=O)N2CCCC(c3cnccn3)C2)o1 (centres unmarked) | 11.19 | 19.78
CC(NC(=O)c1cccs1)C(=O)NS(=O)(=O)c1ccc(C#N)cc1 (centres unmarked) | 1.08 | -12.17
CCN(CC)c1ccc2ccc(C(=O)O)cn12 | -0.9715 | -17.4 and -3.206
CCS(=O)(=O)NCC1CCN(c2cnccn2)CC1 | 7.273 | 17.26
CCN(CC)Cc1nc2c(o1)CN(C(=O)c1ccc3ncccc3c1)C2 | -5.862 | 0.506 and -5.068
CS(=O)(=O)N1CCC(CNC(=O)C2CCCC2)CC1 | -6.255 | -15.84
O=C(c1ccco1)N1Cc2nccn2CC(Cn2ncccc2=O)C1 (centres unmarked) | -8.661 | 3.938
Cn1cnnc1C1CCN(C(=O)CCCOCc2ccccc2)CC1 | 2.395 | 6.914
[H][C@@]12CN(C(C)=O)C[C@]1(C(=O)NC)CCC21CCN(S(C)(=O)=O)CC1 | 15.76 | 18.84
Cn1cc(C(NCc2ccc(F)cc2)c2cccc(F)c2)cn1 (centres unmarked) | 11.66 | 4.607 and 16.82
O=S(=O)(NCc1ccccc1Cn1cncn1)N1CCCCCC1 | -9.52 | 5.273
NC(=O)C1CCN(CCc2ccc(NCc3ccoc3)cc2)CC1 | -4.965 | 6.7 and -5.477
CC(C)(C)c1cnc(CN2CCCCC2Cn2cccn2)o1 (centres unmarked) | -19.83 | -25.38
O=C(Cn1nc2ccccc2n1)N1CCCC(O)(CO)C1 (centres unmarked) | -21.11 | -8.693 and 6.081
Cc1ccc(S(=O)(=O)N(C)Cc2cnccn2)cc1N(C)C | -9.847 | 0.3996 and -9.754
c1cnn(CC2CN(Cc3nc(-c4ccoc4)no3)CCO2)c1 (centres unmarked) | -23.81 | 15.24
COCC(=O)N1CCC2(CC(=O)N(c3cccc(F)c3)C2)C1 (centres unmarked) | -0.9104 and -13.75 | 5.254 and -29.23
Cc1ccc(C)c2c(O)cc(CNCC(N)=O)nc12 | -13.3 | -8.121 and -32.84
Cc1nc(C2(NCc3ccc(C#N)cc3F)CCCCC2)no1 | -11.1 | -29.71
Cc1nc(O)cc(C2CCN(Cc3cccc(F)c3F)C2)n1.O=C(O)CC(O)(CC(=O)O)C(=O)O (centres unmarked) | 9.106 | 33.01
CCOc1ccc(CNC(=O)N2CCCC(CO)C2)cc1F (centres unmarked) | -5.387 | -5.34
COc1ccccc1OCc1cc(C(=O)N2CCS(=O)(=O)CC2)n[nH]1 | -33.18 | -14.51
O=C(Nc1cccs1)N(CCO)CCOCC(F)(F)F | -29.07 | -22.23
O=C(c1ccc(-c2cccs2)cc1F)N1CCN(CCO)CC1 | 17.87 | -1.479
CN1CCCC(N(C)C(=O)c2ccc(NC(=O)c3cc[nH]n3)cc2)C1 (centres unmarked) | 5.318 | -24.14 and 1.38
[H][C@@]12CCN(C(=O)Cc3cccs3)C[C@@]1([H])O[C@H](c1noc(C)n1)C2 | -28.49 | -20.06
O=C(O)C(F)(F)F.[H][C@@]12COC[C@]1(CN(C)C)CN(C(=O)Cc1ccc3c(c1)OCO3)C2 | -0.3826 | -6.674
Cc1nn(C)c(C)c1C1CCCN1C(=O)c1ccc2c(c1)OCCO2 (centres unmarked) | 5.248 | 7.832 and -19.22
Cc1cccc(OCCC(=O)N(C)CC(C)C#N)c1C (centres unmarked) | 3.149 | 5.247
Cc1cc(N2CCCN(C(=O)Cc3cc(F)cc(F)c3)CC2)ccn1 | 2.079 | 8.671
Cc1cnc(N2CC3(CCN(C(=O)c4ccoc4)C3)C2)nc1 | -23.09 | -34.88
COc1ccc(C(=O)n2nc(C)c(C)c2C)cc1 | -18.03 | 0.8607
Cc1noc(-c2ccnc(Oc3ccccc3CN3CCCCC3)c2)n1 | 21.34 | -3.921
CCc1noc(CNc2ccc(C(=O)N3CCCC(C)C3)cc2C)n1 (centres unmarked) | -12.15 | -3.736
COc1ccccc1CC(=O)N1CCCC(c2cc(C)[nH]n2)C1 (centres unmarked) | -8.602 | 17.97
COCc1nc(N2CCC(CCO)CC2)c2cnn(C)c2n1 | 5.689 | 13.86
Cc1cc(C(=O)N2CCc3[nH]cnc3C2C(=O)O)c(-c2ccccc2)o1 (centres unmarked) | 11.04 and -5.728 | -10.97
Cc1nnc2n1CCN(Cc1nc3c(F)cccc3[nH]1)C2 | -4.74 | -21.4
Cc1cc(O)c(OCC(=O)Nc2nc3c(s2)CCCCC3)cn1 | -2.824 | 9.093
Cc1ccc(N2CCCC(N(C)Cc3ccccn3)C2)nn1 (centres unmarked) | 4.511 | 7.98
Fc1cccc(Cl)c1CNCc1ccccn1 | -14.83 | 0.5184 and -4.385
CC(C)c1noc(CCC(=O)NC(C)c2ccccn2)n1 (centres unmarked) | -0.4343 | 19.13
O=C(O)C(F)(F)F.O=C(O)C(F)(F)F.[H][C@@]12CN(Cc3nccs3)CCC[C@]1(C(=O)OCC)CN(CC(C)C)C2 | 6.841 and -17.56 | -35.85 and -7.819
CN1CCN(C(=O)N2CCCC2)Cc2cccnc21 | -6.695 | -2.126 and 17.79
[H][C@@]12CCN(c3ncccn3)C[C@]1(C(=O)NCc1cnc(C)cn1)CCO2 | 4.323 | 1.308
O=S(=O)(N1CCCCCC1)N1CCCN(CC2CCCO2)CC1 (centres unmarked) | 17.12 | 0.9192 and 2.395
Cc1cnn(CC2CN(Cc3nc(C)no3)CCO2)c1 (centres unmarked) | -12.3 | 0.622
CCCC(=O)N1CCC(c2ncc3c(n2)CCNC3)CC1 | -22.33 | -13.62
CNC(=O)c1cccnc1NCc1ccc(Cn2cccn2)cc1 | 9.915 | 9.855 and 8.999
CCc1ncncc1C(=O)N1CCN(Cc2ccco2)CC1 | -17.85 | -24.91
CC1CCN(CCNCc2cc(-c3ccccc3)cn3nnnc23)CC1 | -3.561 | -0.7334
CN1CCN(C(=O)Cc2ccc(F)cc2)Cc2cccnc21.O=C(O)C(F)(F)F | -0.06151 | 10.46 and -4.338
Fc1ccccc1C1NCCc2cc3c(cc21)OCCO3 (centres unmarked) | 14.14 | 12.56
CSc1ccccc1NC(=O)c1ccc(N2CCOCC2)nn1 | 0.6588 | 6.305
CC(CN1CCC2(CC1)c1nc[nH]c1CCN2S(C)(=O)=O)C(F)(F)F (centres unmarked) | -8.079 | -4.62 and -0.1527
[H][C@]12CCCCN1CCC[C@H]2CNC(=O)Cn1ccc2cc(C)ccc21 | 1.897 | 23.28

6 of the entries, repeated:

{"structure": "CCS(=O)(=O)NCCNc1cc(-n2cccc2)ncn1", "Mtb cholesterol medium": 18.16, "Mtb glucose medium": "8.41 and 18.33"}
{"structure": "CCc1ncncc1C(=O)N1CCN(Cc2ccco2)CC1", "Mtb cholesterol medium": -17.85, "Mtb glucose medium": -24.91}
{"structure": "CCOCCN1Cc2cnn(C)c2C(COCC)C1.O=C(O)C(F)(F)F.O=C(O)C(F)(F)F", "stereo": "centres unmarked", "Mtb cholesterol medium": -6.583, "Mtb glucose medium": 0.2129}
{"structure": "COc1ccc(C(=O)n2nc(C)c(C)c2C)cc1", "Mtb cholesterol medium": -18.03, "Mtb glucose medium": 0.8607}
{"structure": "Cc1cnn(CC2CN(Cc3nc(C)no3)CCO2)c1", "stereo": "centres unmarked", "Mtb cholesterol medium": -12.3, "Mtb glucose medium": 0.622}
{"structure": "CSc1ccccc1NC(=O)c1ccc(N2CCOCC2)nn1", "Mtb cholesterol medium": 0.6588, "Mtb glucose medium": 6.305}